This note sets out measurements from patent US20220281969A1 (ANTLERA THERAPEUTICS, published 2022).

The target in this experiment is T1, recombinant mouse LRP6His chimera (mouse, UniProt O88572 20-1370).
T1 construct: extracellular domain; not shown: His tag
T1 sequence (looked up): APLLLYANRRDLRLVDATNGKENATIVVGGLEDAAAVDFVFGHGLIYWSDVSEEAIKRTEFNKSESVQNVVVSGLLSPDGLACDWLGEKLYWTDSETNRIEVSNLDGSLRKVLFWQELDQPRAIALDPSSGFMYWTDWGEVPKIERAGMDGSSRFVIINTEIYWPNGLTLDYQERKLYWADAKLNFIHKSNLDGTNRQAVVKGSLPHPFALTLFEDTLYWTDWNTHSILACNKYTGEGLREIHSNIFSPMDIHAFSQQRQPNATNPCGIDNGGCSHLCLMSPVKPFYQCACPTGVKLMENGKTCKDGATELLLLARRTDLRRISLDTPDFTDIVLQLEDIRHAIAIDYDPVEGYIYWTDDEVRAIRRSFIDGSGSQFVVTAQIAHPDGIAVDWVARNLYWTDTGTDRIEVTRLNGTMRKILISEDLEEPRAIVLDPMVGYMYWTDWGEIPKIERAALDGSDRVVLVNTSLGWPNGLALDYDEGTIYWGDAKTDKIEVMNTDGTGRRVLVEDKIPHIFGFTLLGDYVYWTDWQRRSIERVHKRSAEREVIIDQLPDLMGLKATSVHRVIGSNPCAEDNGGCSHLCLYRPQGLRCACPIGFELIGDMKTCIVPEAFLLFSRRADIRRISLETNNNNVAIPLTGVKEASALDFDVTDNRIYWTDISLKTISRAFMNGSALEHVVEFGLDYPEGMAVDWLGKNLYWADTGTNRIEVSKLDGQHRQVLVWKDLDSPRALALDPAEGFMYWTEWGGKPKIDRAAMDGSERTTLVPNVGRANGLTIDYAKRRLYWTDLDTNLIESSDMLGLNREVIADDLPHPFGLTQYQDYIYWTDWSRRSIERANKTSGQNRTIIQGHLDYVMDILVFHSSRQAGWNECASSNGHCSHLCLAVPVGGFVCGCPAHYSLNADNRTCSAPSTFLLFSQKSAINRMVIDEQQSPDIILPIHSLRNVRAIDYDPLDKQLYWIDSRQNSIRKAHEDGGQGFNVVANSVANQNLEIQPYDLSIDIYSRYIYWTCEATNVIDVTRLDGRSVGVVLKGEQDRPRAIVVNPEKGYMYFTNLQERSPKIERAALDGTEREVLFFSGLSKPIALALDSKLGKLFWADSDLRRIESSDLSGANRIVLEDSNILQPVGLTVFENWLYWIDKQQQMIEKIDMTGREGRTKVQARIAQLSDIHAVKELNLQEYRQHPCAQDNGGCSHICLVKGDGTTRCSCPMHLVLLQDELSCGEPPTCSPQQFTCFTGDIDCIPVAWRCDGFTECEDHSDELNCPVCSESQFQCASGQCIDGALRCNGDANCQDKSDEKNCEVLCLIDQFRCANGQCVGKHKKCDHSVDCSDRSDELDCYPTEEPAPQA
Description: single-point ELISA, IgG1 on coated antigen. As for the experimental part: FIGS. 1a and 1b show LRP six antibodies. (A) The amino acid sequences of the complementarity determining regions (CDR) of the heavy (H) and the light (L) chains are presented. The antibodies were grouped into unique epitopes as determined by competitive ELISAs. (B) Single-point ELISAs were performed on 96-well Maxisorb immune plates coated with the […] of mouse LRP5, mouse LRP6 and human LRP6 chimeras. The plates were incubated with the purified Fab or IgG1 at the concentrations indicated followed by incubation with horseradish peroxidase (HRP)-conjugated anti-kappa antibody. The wells were washed eight times followed by incubation with 3,3′,5,5′-tetramethylbenzidine/H₂O₂ peroxidase (TMB) substrate for 5-10 min. The reaction was stopped by adding one M H₃PO₄ and the absorbance was measured spectrometrically at 450 nm in a microtiter plate reader.
The full length IgG1s were purified and a single-point ELISA was done to determine the specificity of the antibodies. […] A multipoint competitive ELISA was used to determine the relative affinities of the antibodies to the recombinant antigen.
On the technique in general: In an ELISA, binding on a coated surface is turned into a signal by an enzyme label.

Results are given in words; binding and its absence hold for the method and conditions named. Some binding calls cover weakened binding; strength is not graded here.

B1: LRP6-A10 IgG1 antibody (antibody, V domains shown)
VH: EVQLVESGGGLVQPGGSLRLSCAASGFNISYSSIHWVRQAPGKGLEWVAYISSYYGYTYYADSVKGRFTISADTSKNTAYLQMNSLRAEDTAVYYCARAHYFPWAGAMDYWGQGTLVTVSS
VL: DIQMTQSPSSLSASVGDRVTITCRASQSVSSAVAWYQQKPGKAPKLLIYSASSLYSGVPSRFSGSRSGTDFTLTISSLQPEDFATYYCQQYSWGPFTFGQGTKVEIKR
notes: Tested as purified full length IgG1
On to B1, for which the binding result is given as “binds”.
